This experiment concerns the target T1, endogenous MBNL1 (mouse (endogenous in N2A)) (UniProt Q9JKP5).
T1 sequence: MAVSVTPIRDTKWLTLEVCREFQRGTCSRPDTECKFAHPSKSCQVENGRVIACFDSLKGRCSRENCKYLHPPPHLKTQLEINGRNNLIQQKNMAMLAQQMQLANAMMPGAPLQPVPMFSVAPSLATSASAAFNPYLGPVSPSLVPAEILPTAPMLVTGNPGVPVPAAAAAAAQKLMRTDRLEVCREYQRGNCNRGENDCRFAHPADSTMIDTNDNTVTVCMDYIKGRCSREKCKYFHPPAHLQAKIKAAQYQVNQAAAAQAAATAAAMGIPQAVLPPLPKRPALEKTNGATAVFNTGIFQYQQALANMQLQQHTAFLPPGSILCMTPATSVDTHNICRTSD
As to the kind of experiment: co-IP; endogenous proteins, N2A lysate (1% NP-40, 0.1% sodium deoxycholate, 0.05% SDS, Benzonase); rabbit anti-MBNL1 or normal rabbit IgG on protein A Dynabeads overnight at 4 °C; high-salt washes (1 M NaCl); western blot.

Our source for the binding values is paper PMC10256740.

Results are given in words; binding and its absence hold for the method and conditions named. Binding seen in cells or lysates may run through a third protein. Some results given as binding are weak or reduced against the parent protein; the word gives no strength.

B1: endogenous Kif1c (protein, UniProt O35071 1-1100)
chain: MAGASVKVAVRVRPFNARETSQDAKCVVSMQGNTTSIINPKQSKDAPKSFTFDYSYWSHTSVEDPQFASQQQVYRDIGEEMLLHAFEGYNVCIFAYGQTGAGKSYTMMGRQEPGQQGIVPQLCEDLFSRVNVNQSAQLSYSVEVSYMEIYCERVRDLLNPKSRGSLRVREHPILGPYVQDLSKLAVTSYADIADLMDCGNKARTVAATNMNETSSRSHAVFTIVFTQRSHDQLTGLDSEKVSKISLVDLAGSERADSSGARGMRLKEGANINKSLTTLGKVISALADLQSKKRKSDFIPYRDSVLTWLLKENLGGNSRTAMIAALSPADINYEETLSTLRYADRTKQIRCNAVINEDPNARLIRELQEEVARLRDLLMAQGLSASALGGLKVEEGSPGGVLPPASSPPAPASPSSPPPHNGELEPSFSPSAEPQIGPEEAMERLQETEKIIAELNETWEEKLRKTEALRMEREALLAEMGVAVREDGGTVGVFSPKKTPHLVNLNEDPLMSECLLYHIKDGVTRVGQVDVDIKLTGQFIREQHCLFRSIPQPDGEVMVTLEPCEGAETYVNGKLVTEPLVLKSGNRIVMGKNHVFRFNHPEQARLERERGVPPPPGPPSEPVDWNFAQKELLEQQGIDIKLEMEKRLQDLENQYRKEKEEADLLLEQQRLYADSDSGEDSDKRSCEESWRLISSLREQLPPTTVQNIVKRCGLPSSGKRRAPRRVYQIPQRRRLQGKDPRWATMADLKMQAVKEICYEVALADFRHGRAEIEALAALKMRELCRTYGKPEGPGDAWRAVARDVWDTVGEEEGCGGGGGGSEEGARGAEVEDLRAHIDKLTGILQEVKLQNSSKDRELQALRDRMLRMERVIPLTQDLEDDNDESGLVTWAPPEGPEAVEETVPNDHSPAVRPTSPPLSSWERVSRLMEEDPAFRRGRLRWLKQEQLRLQGLQGAGGRGGGLRRPPARFVPPHDCKLRFPFKSNPQHRESWPGMGSGEAPAPQPPEEVTVPPAPPNRRPPSPRRPHRSRRNSLDGGSRSRGGGSTQPEPQHLRPQKHNGYPQQPQPSPAQRPGPRYPPYTTPPRMRRQRSAPDLKESGAAV
Take B1: the binding entry is given as “binds”.
